Assay results: patent publication US20220339270A1
These are yes or no findings as the source states them, for the method shown. Some entries that bind do so weakly or less than the wild type. For some assays here: Sequences can lack the tags named with a protein.

Amino acid sequences for entries named in this document (tags omitted). A change or cut given only in a name is not applied to a line headed by its entry.
UniProt P10636: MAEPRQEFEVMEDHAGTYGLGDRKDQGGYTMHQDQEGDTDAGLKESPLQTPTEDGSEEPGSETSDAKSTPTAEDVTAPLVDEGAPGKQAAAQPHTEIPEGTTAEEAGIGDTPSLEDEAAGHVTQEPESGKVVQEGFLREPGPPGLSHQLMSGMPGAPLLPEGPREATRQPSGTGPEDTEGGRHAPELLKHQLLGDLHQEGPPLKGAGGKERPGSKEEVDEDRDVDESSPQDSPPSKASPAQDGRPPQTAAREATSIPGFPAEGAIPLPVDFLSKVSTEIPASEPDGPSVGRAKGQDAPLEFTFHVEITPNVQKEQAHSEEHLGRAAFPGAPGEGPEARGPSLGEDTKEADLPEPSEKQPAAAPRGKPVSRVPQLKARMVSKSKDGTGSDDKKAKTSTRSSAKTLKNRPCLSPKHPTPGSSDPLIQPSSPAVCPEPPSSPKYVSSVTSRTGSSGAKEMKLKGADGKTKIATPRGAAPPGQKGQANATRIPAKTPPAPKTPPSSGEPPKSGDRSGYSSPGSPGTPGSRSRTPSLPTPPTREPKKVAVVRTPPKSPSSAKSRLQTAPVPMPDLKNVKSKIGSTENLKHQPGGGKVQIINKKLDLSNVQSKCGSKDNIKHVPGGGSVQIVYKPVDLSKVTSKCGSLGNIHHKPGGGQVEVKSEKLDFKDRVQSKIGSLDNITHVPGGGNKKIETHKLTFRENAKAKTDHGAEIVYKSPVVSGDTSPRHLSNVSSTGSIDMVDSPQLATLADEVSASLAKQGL

B1: IPN002 scFv-HA expressed from TAU_ITR154 (CAG, LH, (G4S)5) (scFv)
scFv: DVLMTQTPLSLPVSLGDQASISCKSSQSIVHSNGNTYLEWYLQKPGQSPKLLVYKVSNRFSGVPDRFSGSGSGTDFTLKISRVEAEDLGTYYCFQGSLVPWAFGGGTKLEIKGGGGSGGGGSGGGGSGGGGSGGGGSEVHLVESGGALVKPGGSLKLSCAASGFSFSKYGMSWVRQTPDKRLEWVATISSSGSRTYYPDSVKGQFTISRDNAKNTLYLQMSSLKSEDTAMYYCSISWDGAMDYWGQGTSVTVSS
B2: IPN002 scFv-HA expressed from TAU_ITR155 (CAG, LH, (G4S)6) (scFv)
scFv: DVLMTQTPLSLPVSLGDQASISCKSSQSIVHSNGNTYLEWYLQKPGQSPKLLVYKVSNRFSGVPDRFSGSGSGTDFTLKISRVEAEDLGTYYCFQGSLVPWAFGGGTKLEIKGGGGSGGGGSGGGGSGGGGSGGGGSGGGGSEVHLVESGGALVKPGGSLKLSCAASGFSFSKYGMSWVRQTPDKRLEWVATISSSGSRTYYPDSVKGQFTISRDNAKNTLYLQMSSLKSEDTAMYYCSISWDGAMDYWGQGTSVTVSS
B3: IPN002 antibody expressed from CAG-IPN002-HF.T2AL (TAU_ITR1) (antibody, V domains shown)
VH: EVHLVESGGALVKPGGSLKLSCAASGFSFSKYGMSWVRQTPDKRLEWVATISSSGSRTYYPDSVKGQFTISRDNAKNTLYLQMSSLKSEDTAMYYCSISWDGAMDYWGQGTSVTVSS
VL: DVLMTQTPLSLPVSLGDQASISCKSSQSIVHSNGNTYLEWYLQKPGQSPKLLVYKVSNRFSGVPDRFSGSGSGTDFTLKISRVEAEDLGTYYCFQGSLVPWAFGGGTKLEIK
B4: IPN002 antibody expressed from CAG-IPN002-HF.F2AL (TAU_ITR2) (antibody, V domains shown)
VH: B3 VH
VL: B3 VL
B5: IPN002 antibody expressed from CB6-IPN002-HF.F2AL (TAU_ITR3) (antibody, V domains shown)
VH: B3 VH
VL: B3 VL
B6: IPN002 antibody expressed from CB6-IPN002-HF.T2AL (TAU_ITR4) (antibody, V domains shown)
VH: B3 VH
VL: B3 VL
B7: IPN002 antibody expressed from CAG-IPN002-LF2AH (TAU_ITR9) (antibody, V domains shown)
VH: B3 VH
VL: B3 VL
B8: IPN002 scFv-HA expressed from TAU_ITR137 (CAG, HL, G4S) (scFv)
scFv: EVHLVESGGALVKPGGSLKLSCAASGFSFSKYGMSWVRQTPDKRLEWVATISSSGSRTYYPDSVKGQFTISRDNAKNTLYLQMSSLKSEDTAMYYCSISWDGAMDYWGQGTSVTVSSGGGGSDVLMTQTPLSLPVSLGDQASISCKSSQSIVHSNGNTYLEWYLQKPGQSPKLLVYKVSNRFSGVPDRFSGSGSGTDFTLKISRVEAEDLGTYYCFQGSLVPWAFGGGTKLEIK
B9: IPN002 scFv-HA expressed from TAU_ITR139 (CAG, HL, (G4S)3) (scFv)
scFv: EVHLVESGGALVKPGGSLKLSCAASGFSFSKYGMSWVRQTPDKRLEWVATISSSGSRTYYPDSVKGQFTISRDNAKNTLYLQMSSLKSEDTAMYYCSISWDGAMDYWGQGTSVTVSSGGGGSGGGGSGGGGSDVLMTQTPLSLPVSLGDQASISCKSSQSIVHSNGNTYLEWYLQKPGQSPKLLVYKVSNRFSGVPDRFSGSGSGTDFTLKISRVEAEDLGTYYCFQGSLVPWAFGGGTKLEIK
B10: IPN002 scFv-HA expressed from TAU_ITR140 (CAG, HL, (G4S)4) (scFv)
scFv: EVHLVESGGALVKPGGSLKLSCAASGFSFSKYGMSWVRQTPDKRLEWVATISSSGSRTYYPDSVKGQFTISRDNAKNTLYLQMSSLKSEDTAMYYCSISWDGAMDYWGQGTSVTVSSGGGGSGGGGSGGGGSGGGGSDVLMTQTPLSLPVSLGDQASISCKSSQSIVHSNGNTYLEWYLQKPGQSPKLLVYKVSNRFSGVPDRFSGSGSGTDFTLKISRVEAEDLGTYYCFQGSLVPWAFGGGTKLEIK
B11: IPN002 scFv-HA expressed from TAU_ITR141 (CAG, HL, (G4S)5) (scFv)
scFv: EVHLVESGGALVKPGGSLKLSCAASGFSFSKYGMSWVRQTPDKRLEWVATISSSGSRTYYPDSVKGQFTISRDNAKNTLYLQMSSLKSEDTAMYYCSISWDGAMDYWGQGTSVTVSSGGGGSGGGGSGGGGSGGGGSGGGGSDVLMTQTPLSLPVSLGDQASISCKSSQSIVHSNGNTYLEWYLQKPGQSPKLLVYKVSNRFSGVPDRFSGSGSGTDFTLKISRVEAEDLGTYYCFQGSLVPWAFGGGTKLEIK
B12: IPN002 scFv-HA expressed from TAU_ITR142 (CAG, HL, (G4S)6) (scFv)
scFv: EVHLVESGGALVKPGGSLKLSCAASGFSFSKYGMSWVRQTPDKRLEWVATISSSGSRTYYPDSVKGQFTISRDNAKNTLYLQMSSLKSEDTAMYYCSISWDGAMDYWGQGTSVTVSSGGGGSGGGGSGGGGSGGGGSGGGGSGGGGSDVLMTQTPLSLPVSLGDQASISCKSSQSIVHSNGNTYLEWYLQKPGQSPKLLVYKVSNRFSGVPDRFSGSGSGTDFTLKISRVEAEDLGTYYCFQGSLVPWAFGGGTKLEIK
B13: IPN002 scFv-HA expressed from TAU_ITR143 (CAG, HL, (G4S)8) (scFv)
scFv: EVHLVESGGALVKPGGSLKLSCAASGFSFSKYGMSWVRQTPDKRLEWVATISSSGSRTYYPDSVKGQFTISRDNAKNTLYLQMSSLKSEDTAMYYCSISWDGAMDYWGQGTSVTVSSGGGGSGGGGSGGGGSGGGGSGGGGSGGGGSGGGGSGGGGSDVLMTQTPLSLPVSLGDQASISCKSSQSIVHSNGNTYLEWYLQKPGQSPKLLVYKVSNRFSGVPDRFSGSGSGTDFTLKISRVEAEDLGTYYCFQGSLVPWAFGGGTKLEIK
B14: IPN002 scFv-HA expressed from TAU_ITR150 (CAG, LH, G4S) (scFv)
scFv: DVLMTQTPLSLPVSLGDQASISCKSSQSIVHSNGNTYLEWYLQKPGQSPKLLVYKVSNRFSGVPDRFSGSGSGTDFTLKISRVEAEDLGTYYCFQGSLVPWAFGGGTKLEIKGGGGSEVHLVESGGALVKPGGSLKLSCAASGFSFSKYGMSWVRQTPDKRLEWVATISSSGSRTYYPDSVKGQFTISRDNAKNTLYLQMSSLKSEDTAMYYCSISWDGAMDYWGQGTSVTVSS
B15: IPN002 scFv-HA expressed from TAU_ITR151 (CAG, LH, (G4S)2) (scFv)
scFv: DVLMTQTPLSLPVSLGDQASISCKSSQSIVHSNGNTYLEWYLQKPGQSPKLLVYKVSNRFSGVPDRFSGSGSGTDFTLKISRVEAEDLGTYYCFQGSLVPWAFGGGTKLEIKGGGGSGGGGSEVHLVESGGALVKPGGSLKLSCAASGFSFSKYGMSWVRQTPDKRLEWVATISSSGSRTYYPDSVKGQFTISRDNAKNTLYLQMSSLKSEDTAMYYCSISWDGAMDYWGQGTSVTVSS
B16: IPN002 scFv-HA expressed from TAU_ITR152 (CAG, LH, (G4S)3) (scFv)
scFv: DVLMTQTPLSLPVSLGDQASISCKSSQSIVHSNGNTYLEWYLQKPGQSPKLLVYKVSNRFSGVPDRFSGSGSGTDFTLKISRVEAEDLGTYYCFQGSLVPWAFGGGTKLEIKGGGGSGGGGSGGGGSEVHLVESGGALVKPGGSLKLSCAASGFSFSKYGMSWVRQTPDKRLEWVATISSSGSRTYYPDSVKGQFTISRDNAKNTLYLQMSSLKSEDTAMYYCSISWDGAMDYWGQGTSVTVSS
B17: IPN002 scFv-HA expressed from TAU_ITR153 (CAG, LH, (G4S)4) (scFv)
scFv: DVLMTQTPLSLPVSLGDQASISCKSSQSIVHSNGNTYLEWYLQKPGQSPKLLVYKVSNRFSGVPDRFSGSGSGTDFTLKISRVEAEDLGTYYCFQGSLVPWAFGGGTKLEIKGGGGSGGGGSGGGGSGGGGSEVHLVESGGALVKPGGSLKLSCAASGFSFSKYGMSWVRQTPDKRLEWVATISSSGSRTYYPDSVKGQFTISRDNAKNTLYLQMSSLKSEDTAMYYCSISWDGAMDYWGQGTSVTVSS

Tests used:
[1] = target: extracellular tau in the form of paired helical filaments (ePHF) (UniProt P10636); test: PHF tau ELISA, 293 cell supernatant
[2] = target: phospho-tau (antigen of the Phospho-tau ELISA of Example 8) (UniProt P10636); test: Phospho-tau ELISA, ExpiCHO supernatant

Binder	binding [1]	binding [2]
B1	binds	–
B2	binds	–
B3	–	binds
B4	–	binds
B5	–	binds
B6	–	binds
B7	–	binds
B8	binds	–
B9	binds	–
B10	binds	–
B11	binds	–
B12	binds	–
B13	binds	–
B14	binds	–
B15	binds	–
B16	binds	–
B17	binds	–
